Experimental data as given in PMC8880913.
No constants are given. Whether binding was seen depends on the method and setting. In cells and extracts the contact can be indirect. Some binding calls cover weakened binding; strength is not graded here. For part of these data: Sequences can lack the tags named with a protein.

By UniProt entry, the sequences of proteins in these tests, tags left out.
UniProt P10238: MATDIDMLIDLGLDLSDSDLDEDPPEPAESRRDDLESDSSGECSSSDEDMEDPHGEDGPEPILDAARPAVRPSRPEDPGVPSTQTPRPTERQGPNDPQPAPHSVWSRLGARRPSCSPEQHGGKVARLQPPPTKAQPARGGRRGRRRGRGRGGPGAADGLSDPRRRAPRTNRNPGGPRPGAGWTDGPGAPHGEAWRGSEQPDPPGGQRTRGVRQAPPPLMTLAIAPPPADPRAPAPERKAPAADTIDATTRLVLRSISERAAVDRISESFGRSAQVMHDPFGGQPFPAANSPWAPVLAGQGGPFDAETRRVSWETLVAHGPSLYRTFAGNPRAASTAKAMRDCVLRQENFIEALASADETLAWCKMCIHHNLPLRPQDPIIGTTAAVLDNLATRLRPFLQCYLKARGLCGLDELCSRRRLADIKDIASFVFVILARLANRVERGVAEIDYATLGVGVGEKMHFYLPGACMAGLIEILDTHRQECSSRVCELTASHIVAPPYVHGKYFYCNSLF

Assays:
[1] = molecular target: T1, Flag-tagged MOV10 (Moloney leukemia virus 10 protein) (human) (UniProt Q9HCE1); experiment: co-IP; anti-Flag immunoprecipitation of Flag-tagged MOV10 or its truncated mutants from transfected Neuro-2a cells infected with HSV-1 (MOI = 5), harvested at 12 hpi; western blot
T1 sequence: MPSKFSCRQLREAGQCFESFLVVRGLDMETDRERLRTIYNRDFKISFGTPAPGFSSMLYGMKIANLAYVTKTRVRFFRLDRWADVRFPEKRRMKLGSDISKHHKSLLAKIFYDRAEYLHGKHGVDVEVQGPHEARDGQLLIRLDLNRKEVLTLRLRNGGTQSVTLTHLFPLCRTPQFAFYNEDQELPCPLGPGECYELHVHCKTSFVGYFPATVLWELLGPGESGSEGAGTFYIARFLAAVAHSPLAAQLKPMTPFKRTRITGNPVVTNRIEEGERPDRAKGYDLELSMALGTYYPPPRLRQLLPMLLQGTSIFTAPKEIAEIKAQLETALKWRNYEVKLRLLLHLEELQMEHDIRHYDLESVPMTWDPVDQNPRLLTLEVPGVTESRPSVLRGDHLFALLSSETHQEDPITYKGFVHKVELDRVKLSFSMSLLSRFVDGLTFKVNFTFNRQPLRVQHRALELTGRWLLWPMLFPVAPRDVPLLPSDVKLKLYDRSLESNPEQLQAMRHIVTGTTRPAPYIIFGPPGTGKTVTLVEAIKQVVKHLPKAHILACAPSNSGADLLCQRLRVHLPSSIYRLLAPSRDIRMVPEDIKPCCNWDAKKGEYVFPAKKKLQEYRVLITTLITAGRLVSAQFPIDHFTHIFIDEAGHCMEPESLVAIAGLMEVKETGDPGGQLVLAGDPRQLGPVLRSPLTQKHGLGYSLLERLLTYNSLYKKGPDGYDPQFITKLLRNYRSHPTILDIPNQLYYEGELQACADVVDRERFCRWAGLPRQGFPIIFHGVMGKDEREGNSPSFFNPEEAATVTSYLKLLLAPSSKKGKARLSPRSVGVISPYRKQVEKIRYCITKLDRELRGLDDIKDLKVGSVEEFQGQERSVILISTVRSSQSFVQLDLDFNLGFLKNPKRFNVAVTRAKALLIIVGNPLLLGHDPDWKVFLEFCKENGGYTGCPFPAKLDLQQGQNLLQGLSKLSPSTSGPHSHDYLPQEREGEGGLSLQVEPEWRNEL

[2] = molecular target: T2, Flag-tagged IKKε (IκB kinase ε) (UniProt Q14164); experiment: co-IP; anti-Flag immunoprecipitation of Flag-IKKε from Neuro-2a cells co-transfected with untagged MOV10, infected with HSV-1 (MOI = 5), harvested at 12 hpi; western blot
T2 sequence: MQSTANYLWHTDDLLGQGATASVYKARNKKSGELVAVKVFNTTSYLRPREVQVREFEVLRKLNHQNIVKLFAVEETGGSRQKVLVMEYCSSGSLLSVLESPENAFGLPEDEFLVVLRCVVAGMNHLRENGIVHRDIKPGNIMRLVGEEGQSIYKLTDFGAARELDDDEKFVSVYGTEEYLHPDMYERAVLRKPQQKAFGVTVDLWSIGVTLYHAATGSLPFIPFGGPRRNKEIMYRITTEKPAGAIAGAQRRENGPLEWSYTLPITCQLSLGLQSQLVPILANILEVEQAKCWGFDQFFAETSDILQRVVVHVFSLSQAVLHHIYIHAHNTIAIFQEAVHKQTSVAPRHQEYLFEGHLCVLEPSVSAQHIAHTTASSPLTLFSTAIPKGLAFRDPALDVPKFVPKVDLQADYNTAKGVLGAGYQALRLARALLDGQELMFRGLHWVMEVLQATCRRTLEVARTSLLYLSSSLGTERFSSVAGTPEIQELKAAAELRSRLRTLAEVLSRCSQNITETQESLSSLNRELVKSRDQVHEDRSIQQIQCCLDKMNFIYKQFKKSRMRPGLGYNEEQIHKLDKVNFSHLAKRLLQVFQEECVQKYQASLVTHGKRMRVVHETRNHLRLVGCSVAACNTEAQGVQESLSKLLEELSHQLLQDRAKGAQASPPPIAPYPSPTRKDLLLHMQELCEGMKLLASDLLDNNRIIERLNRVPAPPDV

[3] = molecular target: Flag-tagged ICP27 (transfected) (HSV-1) (UniProt P10238); experiment: co-IP; anti-Flag immunoprecipitation of ICP27 or its truncated mutants from transfected Neuro-2a cells harvested at 24 h post-transfection; western blot for endogenous MOV10

HSV-1 ICP27 expressed during HSV-1 infection (from UniProt P10238 1-512)
binding [1]: binds

B1: untagged MOV10 (protein, UniProt Q9HCE1 1-1003)
chain: MPSKFSCRQLREAGQCFESFLVVRGLDMETDRERLRTIYNRDFKISFGTPAPGFSSMLYGMKIANLAYVTKTRVRFFRLDRWADVRFPEKRRMKLGSDISKHHKSLLAKIFYDRAEYLHGKHGVDVEVQGPHEARDGQLLIRLDLNRKEVLTLRLRNGGTQSVTLTHLFPLCRTPQFAFYNEDQELPCPLGPGECYELHVHCKTSFVGYFPATVLWELLGPGESGSEGAGTFYIARFLAAVAHSPLAAQLKPMTPFKRTRITGNPVVTNRIEEGERPDRAKGYDLELSMALGTYYPPPRLRQLLPMLLQGTSIFTAPKEIAEIKAQLETALKWRNYEVKLRLLLHLEELQMEHDIRHYDLESVPMTWDPVDQNPRLLTLEVPGVTESRPSVLRGDHLFALLSSETHQEDPITYKGFVHKVELDRVKLSFSMSLLSRFVDGLTFKVNFTFNRQPLRVQHRALELTGRWLLWPMLFPVAPRDVPLLPSDVKLKLYDRSLESNPEQLQAMRHIVTGTTRPAPYIIFGPPGTGKTVTLVEAIKQVVKHLPKAHILACAPSNSGADLLCQRLRVHLPSSIYRLLAPSRDIRMVPEDIKPCCNWDAKKGEYVFPAKKKLQEYRVLITTLITAGRLVSAQFPIDHFTHIFIDEAGHCMEPESLVAIAGLMEVKETGDPGGQLVLAGDPRQLGPVLRSPLTQKHGLGYSLLERLLTYNSLYKKGPDGYDPQFITKLLRNYRSHPTILDIPNQLYYEGELQACADVVDRERFCRWAGLPRQGFPIIFHGVMGKDEREGNSPSFFNPEEAATVTSYLKLLLAPSSKKGKARLSPRSVGVISPYRKQVEKIRYCITKLDRELRGLDDIKDLKVGSVEEFQGQERSVILISTVRSSQSFVQLDLDFNLGFLKNPKRFNVAVTRAKALLIIVGNPLLLGHDPDWKVFLEFCKENGGYTGCPFPAKLDLQQGQNLLQGLSKLSPSTSGPHSHDYLPQEREGEGGLSLQVEPEWRNEL
binding [2]: binds

B2: endogenous MOV10 of Neuro-2a cells (protein, UniProt P23249 1-1004)
chain: MPSKFSCRKLRETGQRFESFLAERGLDLETDRERLRTIYNHDFKPSYGTPAPGFSSMLYGMKIANLAFVTKTRVRFFKLDRWADVQLPEKRRIKPGSNISKQHRSLLARIFHDRAEYLHGKHGVDVEVQGPHEARDGQLLIHLDLNRKEVLTLRLRNGGSKPVTLTHLFPLCWTPQFVFYHGEQDLPCPLGPGESYELHIYCKTSIVGYFPATVLWELLGPGESGAEGAETFYIARFLAAVAHSPLAAQLKPTTPFKRPPRLTRNSVLTNRIEEGERPDRAKGYELELSLALGTYYPPILLRQLLPTLLQGPSIFTAPKEVAEIKAQLETTLKSRNYEVKLRLLLHLEELQMEHDIRHYDLDSVPMTWDPVDQNPRLLTLEVPGVAESRPSVLRGDHLFALLSSETQQDDPVTYKGFVHKVELDRVKLSFSTSLLSRFVDGLTFKVNFTFNRQPLRVQHRALELTGRWVLWPMLFPVASRGVSLLPSDVKFKLYDRSLESNPEQLQAMKHIVRGTTRPAPYIIFGPPGTGKTVTLVEAIKQVVKHLPKAHILACAPSNSGADLLCQRLRVHLPSSIYRLLAPSRDIRMVPEDIKTCCNWDAKKGEYVYPAKKHLQQYRVLITTLITASRLVSAQFPIDHFTHIFIDEAGHCMEPESLVAIAGLMDVKETGNPGGQLVLAGDPRQLGPVLRSPLALKHGLGYSLLERLLAYNSLYKKGPNGYDPQFITKLLRNYRSHPTILDIPNQLYYDGELQACADVVDRERFCRWEGLPQQGFPIIFHGVMGKDEREGNSPSFFNPEEAATVTSYLKQLLAPSSKKGKARLSPRNVGVISPYRKQVEKIRYCITKLDRELRGLDDIKDLKVGSVEEFQGQERSVILISTVRSSQSFVQLDLDFNLGFLKNPKRFNVAVTRAKALLIVVGNPLLLGHDPDWKTFLEFCKENGGYTGCPFPAKLDLQQGQDLLQGLSKLSPSTSGPRRHQNLPQEREGEGGLPLQVEPEWRNEL
binding [3]: binds
